From paper PMC11255299
These are yes or no findings as the source states them, for the method shown. In cells and extracts the contact can be indirect. Some binding calls cover weakened binding; strength is not graded here. For part of these data: Where a sequence is shown, tags or fusion partners need not be part of it.

The chains behind the UniProt entries cited, without tags or fusion partners. Where a name states a change or a piece, a line headed by the entry shows the natural chain unless it says otherwise.
UniProt Q08211: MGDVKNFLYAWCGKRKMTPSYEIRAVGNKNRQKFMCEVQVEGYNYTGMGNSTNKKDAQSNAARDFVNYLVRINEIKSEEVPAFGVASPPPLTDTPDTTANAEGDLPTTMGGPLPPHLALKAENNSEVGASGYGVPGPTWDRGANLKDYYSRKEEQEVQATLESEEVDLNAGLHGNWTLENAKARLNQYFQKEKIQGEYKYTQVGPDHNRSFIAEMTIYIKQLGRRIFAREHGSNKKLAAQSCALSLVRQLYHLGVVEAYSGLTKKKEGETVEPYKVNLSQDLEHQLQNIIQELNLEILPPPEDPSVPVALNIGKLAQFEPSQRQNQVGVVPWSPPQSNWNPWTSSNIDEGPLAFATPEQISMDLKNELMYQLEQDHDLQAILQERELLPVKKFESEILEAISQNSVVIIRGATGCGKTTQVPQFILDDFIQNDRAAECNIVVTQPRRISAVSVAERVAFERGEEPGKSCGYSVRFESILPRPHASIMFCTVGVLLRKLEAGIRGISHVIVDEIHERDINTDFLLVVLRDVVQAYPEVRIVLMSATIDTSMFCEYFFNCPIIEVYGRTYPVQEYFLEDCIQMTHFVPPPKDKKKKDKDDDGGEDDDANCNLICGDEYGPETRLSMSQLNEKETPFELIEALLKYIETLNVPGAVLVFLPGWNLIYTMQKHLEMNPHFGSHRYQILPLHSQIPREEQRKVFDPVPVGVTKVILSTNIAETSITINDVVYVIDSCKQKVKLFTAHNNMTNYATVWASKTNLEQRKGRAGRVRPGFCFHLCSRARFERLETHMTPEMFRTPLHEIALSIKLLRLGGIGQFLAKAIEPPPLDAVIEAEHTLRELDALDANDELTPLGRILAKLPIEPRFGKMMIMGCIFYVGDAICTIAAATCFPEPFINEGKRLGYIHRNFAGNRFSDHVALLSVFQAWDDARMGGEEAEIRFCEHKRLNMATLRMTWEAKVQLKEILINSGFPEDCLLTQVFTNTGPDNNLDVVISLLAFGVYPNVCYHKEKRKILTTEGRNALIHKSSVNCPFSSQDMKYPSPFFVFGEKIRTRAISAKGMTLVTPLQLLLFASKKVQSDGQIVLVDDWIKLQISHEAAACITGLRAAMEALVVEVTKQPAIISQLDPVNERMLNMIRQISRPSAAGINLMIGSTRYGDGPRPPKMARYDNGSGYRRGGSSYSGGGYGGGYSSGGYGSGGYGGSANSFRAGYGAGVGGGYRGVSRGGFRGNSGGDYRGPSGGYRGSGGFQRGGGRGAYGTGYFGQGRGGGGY
UniProt P09874: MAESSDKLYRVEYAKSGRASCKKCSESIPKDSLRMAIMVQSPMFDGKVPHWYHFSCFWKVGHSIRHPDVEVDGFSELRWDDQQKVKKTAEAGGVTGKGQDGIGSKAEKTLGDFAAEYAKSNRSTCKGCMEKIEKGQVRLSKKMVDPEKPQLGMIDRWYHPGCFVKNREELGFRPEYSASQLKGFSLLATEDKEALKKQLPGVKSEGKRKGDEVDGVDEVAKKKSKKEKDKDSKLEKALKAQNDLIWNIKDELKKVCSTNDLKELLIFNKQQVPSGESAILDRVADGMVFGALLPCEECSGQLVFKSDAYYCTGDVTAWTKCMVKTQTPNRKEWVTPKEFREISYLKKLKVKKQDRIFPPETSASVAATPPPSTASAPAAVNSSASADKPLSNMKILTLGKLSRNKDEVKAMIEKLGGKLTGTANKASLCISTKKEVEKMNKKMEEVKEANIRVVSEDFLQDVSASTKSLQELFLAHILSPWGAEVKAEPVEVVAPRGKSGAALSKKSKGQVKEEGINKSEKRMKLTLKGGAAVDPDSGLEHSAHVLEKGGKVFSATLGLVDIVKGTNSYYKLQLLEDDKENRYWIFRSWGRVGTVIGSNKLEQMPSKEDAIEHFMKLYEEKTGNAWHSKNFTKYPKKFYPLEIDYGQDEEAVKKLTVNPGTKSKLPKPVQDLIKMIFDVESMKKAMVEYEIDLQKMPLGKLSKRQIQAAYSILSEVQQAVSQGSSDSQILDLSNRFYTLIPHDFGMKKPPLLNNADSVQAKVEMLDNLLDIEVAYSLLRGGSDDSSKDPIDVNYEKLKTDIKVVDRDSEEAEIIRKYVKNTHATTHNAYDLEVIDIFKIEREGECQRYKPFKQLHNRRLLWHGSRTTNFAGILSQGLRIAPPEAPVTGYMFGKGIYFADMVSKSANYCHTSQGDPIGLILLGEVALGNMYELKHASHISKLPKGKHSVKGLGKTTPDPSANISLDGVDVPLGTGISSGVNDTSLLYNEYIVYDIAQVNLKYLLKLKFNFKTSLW
UniProt O75533: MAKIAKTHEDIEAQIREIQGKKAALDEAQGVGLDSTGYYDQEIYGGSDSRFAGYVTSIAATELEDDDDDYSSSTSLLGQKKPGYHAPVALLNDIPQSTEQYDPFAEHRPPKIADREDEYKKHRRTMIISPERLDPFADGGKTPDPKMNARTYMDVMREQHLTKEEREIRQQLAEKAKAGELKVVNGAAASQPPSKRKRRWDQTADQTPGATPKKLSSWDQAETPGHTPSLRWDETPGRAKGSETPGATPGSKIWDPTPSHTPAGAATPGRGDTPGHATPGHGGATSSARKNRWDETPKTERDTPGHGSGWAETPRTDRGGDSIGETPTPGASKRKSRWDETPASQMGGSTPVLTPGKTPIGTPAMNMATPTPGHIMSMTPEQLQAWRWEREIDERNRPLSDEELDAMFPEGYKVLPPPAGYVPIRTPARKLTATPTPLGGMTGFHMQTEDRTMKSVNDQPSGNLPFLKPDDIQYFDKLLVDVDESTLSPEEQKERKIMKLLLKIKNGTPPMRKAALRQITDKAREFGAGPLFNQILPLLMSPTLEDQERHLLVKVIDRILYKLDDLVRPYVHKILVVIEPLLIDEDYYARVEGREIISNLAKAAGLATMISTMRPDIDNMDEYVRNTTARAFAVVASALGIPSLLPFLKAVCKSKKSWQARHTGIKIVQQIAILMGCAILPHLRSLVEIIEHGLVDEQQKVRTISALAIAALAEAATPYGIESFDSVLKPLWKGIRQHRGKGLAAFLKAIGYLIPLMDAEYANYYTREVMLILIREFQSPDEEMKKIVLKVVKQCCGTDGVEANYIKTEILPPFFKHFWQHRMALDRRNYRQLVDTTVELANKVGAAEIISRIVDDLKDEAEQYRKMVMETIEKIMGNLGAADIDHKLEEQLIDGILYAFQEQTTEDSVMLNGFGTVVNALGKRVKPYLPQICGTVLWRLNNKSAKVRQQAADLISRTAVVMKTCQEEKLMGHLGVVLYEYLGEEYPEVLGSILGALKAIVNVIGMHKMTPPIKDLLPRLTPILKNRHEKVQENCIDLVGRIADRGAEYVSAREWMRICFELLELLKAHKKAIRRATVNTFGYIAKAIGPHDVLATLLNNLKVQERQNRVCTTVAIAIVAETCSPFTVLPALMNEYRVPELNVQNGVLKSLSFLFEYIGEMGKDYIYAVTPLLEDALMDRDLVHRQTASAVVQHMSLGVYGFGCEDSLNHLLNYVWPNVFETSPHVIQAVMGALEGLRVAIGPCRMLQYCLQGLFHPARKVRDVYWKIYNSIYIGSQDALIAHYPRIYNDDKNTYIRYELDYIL
UniProt P61956: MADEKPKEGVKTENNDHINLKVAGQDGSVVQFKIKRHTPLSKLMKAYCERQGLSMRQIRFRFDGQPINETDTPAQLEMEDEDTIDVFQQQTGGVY

Key:
SFB-DHX9^K76R (human) = SFB-DHX9^K76R (human) (UniProt Q08211); assay: pull-down; SFB-DHX9 variants in lysates of transfected HeLa cells (NETN buffer: 20 mM Tris-HCl pH 8.0, 0.5 mM EDTA, 150 mM NaCl, 0.5% Igepal, 10% glycerol, 15 mM NEM) captured on Dynabeads M-280 streptavidin, 4 °C, 4 h; endogenous partners by Western blot
SFB-DHX9^WT (human) [1] = molecular target: SFB-DHX9^WT (human) (UniProt Q08211); assay: pull-down; as a1, lysates (text: nuclear extracts) treated with RNase A (20 μg/mL) before SFB-tag pull-down
SFB-DHX9^WT (human) [2] = molecular target: SFB-DHX9^WT (human) (UniProt Q08211); assay: pull-down; SFB-DHX9 variants in lysates of transfected HeLa cells (NETN buffer: 20 mM Tris-HCl pH 8.0, 0.5 mM EDTA, 150 mM NaCl, 0.5% Igepal, 10% glycerol, 15 mM NEM) captured on Dynabeads M-280 streptavidin, 4 °C, 4 h; endogenous partners by Western blot
HA-PARP1^WT (human) = HA-PARP1^WT (human) (UniProt P09874); assay: co-IP; HA affinity purification (anti-HA beads, room temperature, 1 h, NETN buffer) of HA-PARP1 or HA-DDX21 variants from transfected HeLa cells; DHX9 variants by Western blot
HA-DDX21^WT (human) = molecular target: T1, HA-DDX21^WT (human) (UniProt Q9NR30); assay: as above
T1 sequence: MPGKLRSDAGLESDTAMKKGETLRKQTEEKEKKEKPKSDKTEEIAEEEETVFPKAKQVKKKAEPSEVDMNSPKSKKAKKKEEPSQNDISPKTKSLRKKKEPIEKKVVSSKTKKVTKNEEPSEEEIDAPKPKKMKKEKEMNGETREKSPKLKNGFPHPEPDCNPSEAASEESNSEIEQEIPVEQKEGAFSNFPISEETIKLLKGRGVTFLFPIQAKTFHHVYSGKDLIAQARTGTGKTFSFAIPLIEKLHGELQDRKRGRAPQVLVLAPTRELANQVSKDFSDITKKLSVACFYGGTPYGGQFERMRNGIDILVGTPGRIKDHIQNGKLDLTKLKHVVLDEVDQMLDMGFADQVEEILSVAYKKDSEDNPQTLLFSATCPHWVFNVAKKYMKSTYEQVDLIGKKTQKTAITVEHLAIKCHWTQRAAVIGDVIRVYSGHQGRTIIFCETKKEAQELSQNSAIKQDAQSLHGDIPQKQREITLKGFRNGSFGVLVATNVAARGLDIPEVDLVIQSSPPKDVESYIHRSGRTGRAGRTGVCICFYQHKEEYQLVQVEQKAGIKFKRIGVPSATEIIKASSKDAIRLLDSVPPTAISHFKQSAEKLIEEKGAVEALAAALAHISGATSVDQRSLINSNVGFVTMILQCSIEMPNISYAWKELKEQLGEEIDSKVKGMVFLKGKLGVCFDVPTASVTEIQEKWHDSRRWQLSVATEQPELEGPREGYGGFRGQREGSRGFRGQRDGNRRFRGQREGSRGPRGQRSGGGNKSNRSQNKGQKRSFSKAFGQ

Row | binding (SFB-DHX9^K76R (human)) | binding (SFB-DHX9^WT (human) [1]) | binding (SFB-DHX9^WT (human) [2]) | binding (HA-PARP1^WT (human)) | binding (HA-DDX21^WT (human)) | Substance
1 | binds | – | – | – | – | PARP1 (from UniProt P09874 1-1014)
2 | binds | binds | binds | – | – | SF3B1 (from UniProt O75533 1-1304)
3 | – | – | – | binds | binds | SUMO2-DHX9^K120R (from UniProt P61956 12-91; Q08211 1-1270)
